Values quoted from earlier work in patent US20070161637A1, “Substituted pyridin-2-ylamine analogues” (Neurogen Corporation, priority 2003, published 2007).
Some of these results come from one statement about several compounds together. At least one structure is not confirmed: it was looked up by name or label, or the drawing left a doubt.

Protein sequences, listed by entry. Tags and fused reporters are not part of them.
UniProt Q8NER1, whole entry: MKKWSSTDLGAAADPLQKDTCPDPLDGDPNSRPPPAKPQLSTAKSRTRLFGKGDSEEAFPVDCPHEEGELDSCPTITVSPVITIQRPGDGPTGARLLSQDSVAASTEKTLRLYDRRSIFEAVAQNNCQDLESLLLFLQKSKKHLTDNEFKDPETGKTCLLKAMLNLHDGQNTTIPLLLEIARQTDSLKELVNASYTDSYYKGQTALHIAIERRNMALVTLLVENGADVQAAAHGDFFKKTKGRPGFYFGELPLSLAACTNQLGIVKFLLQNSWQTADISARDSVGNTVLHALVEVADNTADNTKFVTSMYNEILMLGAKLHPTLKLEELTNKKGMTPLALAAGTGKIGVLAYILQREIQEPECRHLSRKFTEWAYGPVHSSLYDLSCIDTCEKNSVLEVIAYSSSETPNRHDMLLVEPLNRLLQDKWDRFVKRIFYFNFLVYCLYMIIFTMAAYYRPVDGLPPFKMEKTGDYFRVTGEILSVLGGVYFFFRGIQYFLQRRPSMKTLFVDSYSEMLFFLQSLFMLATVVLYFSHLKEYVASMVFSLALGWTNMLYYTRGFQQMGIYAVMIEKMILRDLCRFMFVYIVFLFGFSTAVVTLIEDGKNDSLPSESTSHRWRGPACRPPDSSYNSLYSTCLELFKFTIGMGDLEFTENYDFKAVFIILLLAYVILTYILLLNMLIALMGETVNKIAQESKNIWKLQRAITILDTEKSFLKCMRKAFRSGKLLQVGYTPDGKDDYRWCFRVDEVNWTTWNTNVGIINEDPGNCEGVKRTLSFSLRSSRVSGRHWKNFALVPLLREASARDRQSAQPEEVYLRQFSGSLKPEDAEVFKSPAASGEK

Molecular target: VR (Homo sapiens, UniProt Q8NER1)
Settings: typical values, binding to VR; cited from earlier work

Structure (SMILES): Cl.Cl.Cl.Cl.Cl.Cl.N.N.N.N.N.N.N.N.N.N.N.N.N.N.[O-2].[O-2].[Ru+3].[Ru+3].[Ru+4] [ruthenium red]
- Ki: ≥ 140 µM
